Our source for the binding values is patent US20250188139A1.

By UniProt entry, the sequences of proteins in these tests, tags left out. Where a name states a change or a piece, a line headed by the entry shows the natural chain unless it says otherwise.
UniProt P35918: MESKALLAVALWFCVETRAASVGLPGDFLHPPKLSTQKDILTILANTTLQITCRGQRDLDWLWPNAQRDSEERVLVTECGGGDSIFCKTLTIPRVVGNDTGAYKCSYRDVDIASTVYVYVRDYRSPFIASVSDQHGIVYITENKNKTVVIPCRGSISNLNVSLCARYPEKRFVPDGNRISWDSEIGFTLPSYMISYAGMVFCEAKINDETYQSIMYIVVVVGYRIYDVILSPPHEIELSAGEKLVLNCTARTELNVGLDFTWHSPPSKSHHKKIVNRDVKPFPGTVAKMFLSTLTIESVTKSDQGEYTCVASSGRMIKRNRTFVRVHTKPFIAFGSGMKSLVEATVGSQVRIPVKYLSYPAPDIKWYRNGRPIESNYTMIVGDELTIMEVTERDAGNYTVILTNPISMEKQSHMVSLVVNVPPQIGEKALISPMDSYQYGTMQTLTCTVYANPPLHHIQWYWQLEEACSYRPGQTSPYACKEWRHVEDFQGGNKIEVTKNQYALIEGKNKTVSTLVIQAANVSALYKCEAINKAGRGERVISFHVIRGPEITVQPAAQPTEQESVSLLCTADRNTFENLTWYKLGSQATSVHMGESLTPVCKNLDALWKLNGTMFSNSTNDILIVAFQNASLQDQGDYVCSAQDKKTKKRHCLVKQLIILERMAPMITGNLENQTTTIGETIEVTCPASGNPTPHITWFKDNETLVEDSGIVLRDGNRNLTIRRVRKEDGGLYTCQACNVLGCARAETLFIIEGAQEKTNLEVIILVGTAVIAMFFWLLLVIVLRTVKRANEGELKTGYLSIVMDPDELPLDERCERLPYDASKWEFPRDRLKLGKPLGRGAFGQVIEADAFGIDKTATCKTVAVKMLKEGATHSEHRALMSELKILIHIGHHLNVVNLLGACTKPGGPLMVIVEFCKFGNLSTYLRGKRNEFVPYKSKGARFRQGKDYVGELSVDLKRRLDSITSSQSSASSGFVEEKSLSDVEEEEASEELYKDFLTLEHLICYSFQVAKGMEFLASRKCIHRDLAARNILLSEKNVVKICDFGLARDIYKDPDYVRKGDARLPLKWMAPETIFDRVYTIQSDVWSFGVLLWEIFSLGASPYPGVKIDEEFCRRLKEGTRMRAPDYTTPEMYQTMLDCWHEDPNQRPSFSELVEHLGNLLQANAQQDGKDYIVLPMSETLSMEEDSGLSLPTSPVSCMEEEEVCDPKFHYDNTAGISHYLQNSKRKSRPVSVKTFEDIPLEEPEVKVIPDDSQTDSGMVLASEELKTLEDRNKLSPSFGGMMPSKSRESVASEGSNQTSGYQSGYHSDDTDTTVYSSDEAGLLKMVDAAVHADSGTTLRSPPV

Assay [1] concerns the target Murine VEGFR-2 extracellular domain (first three Ig domains, amino acids 20-326), AviTag, hexahistidine tag, biotinylated (murine) (UniProt P35918). Put plainly: yeast display, receptor staining, flow cytometry (FIG. 4). (A flow cytometer gives signals particle by particle.)
Assay [2] addresses T1, Murine VEGFR-3 extracellular domain (amino acids 25-329), AviTag, hexahistidine tag, biotinylated (murine) (UniProt P35917).
T1 sequence (chain (part 1 of 2), biotinylated with BirA ligase (AviTag)): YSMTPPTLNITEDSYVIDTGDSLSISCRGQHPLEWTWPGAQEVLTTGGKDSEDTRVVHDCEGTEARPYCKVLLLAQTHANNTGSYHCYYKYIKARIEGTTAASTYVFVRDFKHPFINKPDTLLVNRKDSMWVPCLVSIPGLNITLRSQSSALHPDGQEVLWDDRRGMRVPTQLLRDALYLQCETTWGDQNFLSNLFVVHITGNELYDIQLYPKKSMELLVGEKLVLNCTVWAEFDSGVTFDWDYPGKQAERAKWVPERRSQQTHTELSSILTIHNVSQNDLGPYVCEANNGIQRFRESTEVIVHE
T1 sequence (chain (part 2 of 2), biotinylated with BirA ligase (AviTag)): HHHHHH
The assay is described as above.

No constants are given. Whether binding was seen depends on the method and setting. Some results given as binding are weak or reduced against the parent protein; the word gives no strength. For some assays here: Where a sequence is shown, tags or fusion partners need not be part of it.

B1: Murine VEGF-C (amino acids 112-215), wild type, displayed on the yeast surface with a GCN4 dimerization sequence (ligand, not shown: large carriers)
chain: TEILKSIDNEWRKTQCMPREVCIDVGKEFGAATNTFFKPPCVSVYRCGGCCNSEGLQCMNTSTGYLSKTLFEITVPLSQGPKPVTISFANHTSCRCMSKLDVYRRMKQLEDKIEELLSKIYHLENEIARLKKLIGER
Regarding B1, the binding result in assay [1] and in assay [2] was “binds” throughout.
